Holding throughout (test): EMSA
For orientation: A gel shift assay detects complexes by their altered migration in electrophoresis.

Amino acid sequences for entries named in this document (tags omitted). Residues count along the entry.
UniProt P67809, 52-129: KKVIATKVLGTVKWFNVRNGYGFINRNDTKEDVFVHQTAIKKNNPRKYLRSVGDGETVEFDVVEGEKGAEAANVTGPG
UniProt P67809, 130-324: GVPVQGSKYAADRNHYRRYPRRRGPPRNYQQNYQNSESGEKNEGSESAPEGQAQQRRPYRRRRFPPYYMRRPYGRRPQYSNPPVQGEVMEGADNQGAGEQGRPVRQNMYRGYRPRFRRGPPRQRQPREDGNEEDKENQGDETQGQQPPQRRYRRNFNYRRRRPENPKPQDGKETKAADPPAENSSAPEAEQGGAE
UniProt P67809, 1-51: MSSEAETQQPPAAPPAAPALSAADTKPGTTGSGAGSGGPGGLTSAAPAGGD

One data set deals with T1, YBAP1 (UniProt Q07021).
T1 sequence (looked up, limits assumed): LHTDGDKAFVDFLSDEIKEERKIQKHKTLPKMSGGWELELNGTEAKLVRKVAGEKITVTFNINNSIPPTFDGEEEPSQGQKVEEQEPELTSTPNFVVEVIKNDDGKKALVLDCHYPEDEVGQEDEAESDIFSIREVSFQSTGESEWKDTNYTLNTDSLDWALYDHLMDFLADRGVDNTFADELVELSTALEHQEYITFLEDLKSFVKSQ
The settings on record: binding not dependent on the UCAGU motif; 25 mM Tris pH 8.0, 100 mM KCl, 1.5 mM MgCl2, 0.2 mM EGTA, 0.05% Nonidet P-40, 1 mM DTT, 5% glycerol, 50 ug/ml heparin; 30 C 30 min, then ice 10 min; 1 nM RNA; recombinant protein; protein details: His6-MBP; label: 5'-IRD800CWN.

In another data set the target is YBX1(52-129) CSD (UniProt P67809). To be noted: 25 mM Tris pH 8.0, 100 mM KCl, 1.5 mM MgCl2, 0.2 mM EGTA, 0.05% Nonidet P-40, 1 mM DTT, 5% glycerol, 50 ug/ml heparin; 30 C 30 min, then ice 10 min; 1 nM RNA; recombinant protein; residues 52-129; protein details: His6-MBP; label: 5'-IRD800CWN.
The target of the next data set is YBX1(130-324) CTD (UniProt P67809). The settings on record: little or no affinity; 25 mM Tris pH 8.0, 100 mM KCl, 1.5 mM MgCl2, 0.2 mM EGTA, 0.05% Nonidet P-40, 1 mM DTT, 5% glycerol, 50 ug/ml heparin; 30 C 30 min, then ice 10 min; 1 nM RNA; recombinant protein; residues 130-324; protein details: His6-MBP; label: 5'-IRD800CWN.
The target of a further data set is YBX1(1-51) A/P domain (UniProt P67809). To be noted: little or no affinity; 25 mM Tris pH 8.0, 100 mM KCl, 1.5 mM MgCl2, 0.2 mM EGTA, 0.05% Nonidet P-40, 1 mM DTT, 5% glycerol, 50 ug/ml heparin; 30 C 30 min, then ice 10 min; 1 nM RNA; recombinant protein; residues 1-51; protein details: His6-MBP; label: 5'-IRD800CWN.

For some of these results: A negative result means that nothing was seen under these conditions. For some of these results: Weaker means in comparison with the reference protein, sequence or condition of that experiment. For some of these results: The exact form of at least one protein or probe is not confirmed. For some of these results: At least one verdict was read from the data and is not stated in words by the source. For some of these results: Where a protein sequence is shown, tags need not be part of it.

On to UGAGACAUUGUCAAAUACCCCA [miR223mut], for which the binding result in the data set with YBAP1 is listed as “binds”.

Consider “UGUCAGUUUGUCAAAUACCCCA [miR223 (hsa-miR-223-3p)]”, for which the results for the binding result in the data set with YBX1(52-129) CSD, with YBX1(130-324) CTD and in the data set with YBX1(1-51) A/P domain were “binds more weakly”, “no binding” and “no binding”, respectively.

The values are drawn from article PMC10403255.
